Counter-ions that a name gives are not always drawn. ± gives the standard deviation of the averaged measurements. This is one part of the list. The data scatter; read single values as rough.
Legend:
[1] = tested on: hAMSC donor 1; experiment: Hoechst total cell count ratio vs vehicle control; higher = more cells (less toxicity)
[2] = tested on: hAMSC donor 2; experiment: as above
[3] = tested on: hAMSC donor 1; experiment: transgenic luciferase activity (RLU/mg protein) fold change vs vehicle control (ratio); higher = more transgene expression
[4] = tested on: hAMSC donor 2; experiment: as above
[5] = tested on: hAMSC donor 1; experiment: transfection efficiency (EGFP+ cells / Hoechst count) fold change vs vehicle control (ratio); hAMSC are human adipose-derived mesenchymal stem cells given an EGFP-luciferase plasmid by lipofection; higher = enhanced transfection
[6] = tested on: hAMSC donor 2; experiment: as above
[7] = priming compound concentration 0.2 µM
[8] = priming compound concentration 1.7 µM
[9] = priming compound concentration 13 µM

SMILES	Hoechst total cell count ratio [1, 7]	Hoechst total cell count ratio [1, 8]	Hoechst total cell count ratio [1, 9]	Hoechst total cell count ratio [2, 7]	Hoechst total cell count ratio [2, 8]	Hoechst total cell count ratio [2, 9]	transgenic luciferase activity [3, 9]	transgenic luciferase activity [4, 7]	transgenic luciferase activity [4, 8]	transgenic luciferase activity [4, 9]	transfection efficiency [5, 7]	transfection efficiency [5, 8]	transfection efficiency [5, 9]	transfection efficiency [6, 7]	transfection efficiency [6, 8]	transfection efficiency [6, 9]	transgenic luciferase activity [3, 8]
CO[C@H]1/C=C/O[C@@]2(C)Oc3c(C)c(O)c4c(O)c(c(/C=N/N5CCN(C6CCCC6)CC5)c(O)c4c3C2=O)NC(=O)/C(C)=C\C=C\[C@H](C)[C@H](O)[C@@H](C)[C@@H](O)[C@@H](C)[C@H](OC(C)=O)[C@@H]1C [Rifapentine]	1.22 ± 0.25	1.55 ± 0.082	1.64 ± 0.072	1.08 ± 0.036	1.11 ± 0.043	1.5 ± 0.17	0.289 ± 0.062	1.07 ± 0.05	0.57 ± 0.1	0.392 ± 0.082	0.903 ± 0.19	0.863 ± 0.038	0.358 ± 0.1	1.14 ± 0.15	0.766 ± 0.083	0.272 ± 0.11	
CN(C)CCOC(C)(c1ccccc1)c1ccccn1 (centres undefined) [Doxylamine succinate]	1.24 ± 0.13	1.1 ± 0.19	0.976 ± 0.076	0.875 ± 0.28	0.844 ± 0.14	1.53 ± 0.34		0.619 ± 0.3	1.47 ± 0.43	0.233 ± 0.19	0.967 ± 0.16	1.61 ± 0.12	1.01 ± 0.29	1.55 ± 0.1	1.26 ± 0.18	1.2 ± 0.66	1.8 ± 0.56
OCCOCCN1CCN(C(c2ccccc2)c2ccc(Cl)cc2)CC1 (centres undefined) [Hydroxyzine pamoate]	1.23 ± 0.15	1.48 ± 0.26	1.5 ± 0.13	1.12 ± 0.069	1.19 ± 0.063	1.01 ± 0.29	0.817 ± 0.21	0.756 ± 0.13	0.689 ± 0.042	0.587 ± 0.17	1.08 ± 0.24	1.27 ± 0.34	0.874 ± 0.13	1.06 ± 0.21	0.999 ± 0.083	0.917 ± 0.1	
O=C(O)COCCN1CCN(C(c2ccccc2)c2ccc(Cl)cc2)CC1 (centres undefined) [Cetirizine]	1.27 ± 0.069	1.56 ± 0.12	1.49 ± 0.18	1.06 ± 0.12	1.22 ± 0.071	1.13 ± 0.12	0.913 ± 0.41	0.741 ± 0.071	0.626 ± 0.03	0.577 ± 0.11	0.965 ± 0.098	1.08 ± 0.36	0.981 ± 0.18	0.888 ± 0.051	0.818 ± 0.09	0.791 ± 0.078	
CC(=O)[C@@]1(O)CC[C@H]2[C@@H]3C[C@H](C)C4=CC(=O)C=C[C@]4(C)[C@@]3(F)[C@@H](O)C[C@@]21C [Fluorometholone]	1.61 ± 0.11	1.76 ± 0.077	1.09 ± 0.03	1.15 ± 0.075	1.01 ± 0.035	0.753 ± 0.057	15.8 ± 0.42	3.79 ± 1	3.05 ± 0.83	3.77 ± 1.5	1.33 ± 0.15	1.13 ± 0.054	2.36 ± 0.3	1.41 ± 0.17	1.74 ± 0.3	1.97 ± 0.37	
CCOC(=O)c1ncn2c1CN(C)C(=O)c1cc(F)ccc1-2 [Flumazenil]	1.46 ± 0.021	1.04 ± 0.11	1.09 ± 0.028	0.901 ± 0.18	0.846 ± 0.039	1.27 ± 0.27		0.561 ± 0.037	1.23 ± 0.4	0.837 ± 0.17	0.675 ± 0.12	1.49 ± 0.11	0.834 ± 0.19	1.18 ± 0.27	1.36 ± 0.23	1.38 ± 0.12	2.69 ± 1.1
CC1(C)S[C@@H]2[C@H](NC(=O)COc3ccccc3)C(=O)N2[C@H]1C(=O)O [Penicillin V]	1.04 ± 0.1	1.27 ± 0.27	1.14 ± 0.095	1.05 ± 0.085	1.06 ± 0.019	1.03 ± 0.088	0.518 ± 0.11	1.16 ± 0.54	1.01 ± 0.12	1 ± 0.052	0.883 ± 0.17	1.32 ± 0.75	1.02 ± 0.26	1.37 ± 0.13	1.24 ± 0.11	1.27 ± 0.16	
CC(CN1c2ccccc2Sc2ccccc21)N(C)C (centres undefined) [Promethazine hydrochloride]	1.2 ± 0.18	1.66 ± 0.088	1.06 ± 0.023	1.13 ± 0.11	1.19 ± 0.1	1.42 ± 0.11	0.882 ± 0.22	0.612 ± 0.33	0.64 ± 0.06	0.459 ± 0.03	0.964 ± 0.15	0.849 ± 0.3	1.33 ± 0.43	1.11 ± 0.14	0.895 ± 0.13	0.718 ± 0.045	
C[C@H]1COc2c(N3CCN(C)CC3)c(F)cc3c(=O)c(C(=O)O)cn1c23 [Levofloxacin]	1.07 ± 0.13	1.09 ± 0.11	1.16 ± 0.15	0.887 ± 0.22	1.66 ± 0.063	2.38 ± 0.55		0.36 ± 0.059	0.355 ± 0.016	0.151 ± 0.04	1.48 ± 0.62	1.12 ± 0.33	0.898 ± 0.34	1.31 ± 0.28	0.763 ± 0.069	1.14 ± 0.089	2.19 ± 0.92
NCC(=O)CCC(=O)O [Aminolevulinic acid]	1.42 ± 0.32	1.11 ± 0.16	0.875 ± 0.021	1.19 ± 0.14	0.973 ± 0.055	1.48 ± 0.43		0.811 ± 0.38	0.709 ± 0.32	1.05 ± 0.49	0.91 ± 0.11	1.29 ± 0.49	1.26 ± 0.19	1.57 ± 0.42	1.01 ± 0.073	1.61 ± 0.67	3.11 ± 1.7
Nc1cc(N2CCCCC2)nc(N)[n+]1[O-] [Minoxidil]	1.28 ± 0.057	1.66 ± 0.053	1.27 ± 0.079	1.07 ± 0.044	1.09 ± 0.035	1.21 ± 0.15	0.622 ± 0.42	0.811 ± 0.19	0.89 ± 0.077	0.763 ± 0.15	0.961 ± 0.065	1.1 ± 0.086	0.89 ± 0.25	1.17 ± 0.1	1.05 ± 0.049	0.871 ± 0.085	
CC(=O)O[C@@]12CO[C@@H]1C[C@H](O)[C@@]1(C)C(=O)[C@H](O)C3=C(C)[C@@H](OC(=O)[C@H](O)[C@@H](NC(=O)OC(C)(C)C)c4ccccc4)C[C@@](O)([C@@H](OC(=O)c4ccccc4)[C@H]21)C3(C)C [Docetaxel]	0.48 ± 0.096	0.497 ± 0.079	0.508 ± 0.054	0.52 ± 0.26	0.607 ± 0.21	0.627 ± 0.18		0.256 ± 0.042	0.394 ± 0.01	0.109 ± 0.033	3.2 ± 0.69	4 ± 0.22	2.88 ± 0.82	0.639 ± 0.15	0.866 ± 0.35	0.52 ± 0.36	3.46 ± 1.7
Cc1onc(-c2ccccc2)c1C(=O)N[C@@H]1C(=O)N2[C@@H]1SC(C)(C)[C@@H]2C(=O)O [Oxacillin sodium]	1.3 ± 0.14	1.55 ± 0.21	1.09 ± 0.17	1.12 ± 0.054	1.15 ± 0.12	1.21 ± 0.041	1.37 ± 0.24	0.564 ± 0.045	0.658 ± 0.034	0.652 ± 0.13	0.929 ± 0.21	0.865 ± 0.28	1.7 ± 0.39	0.853 ± 0.18	0.895 ± 0.12	0.833 ± 0.042	
Nc1nc2c(ncn2COCCO)c(=O)[nH]1 [Acyclovir]	1.15 ± 0.16	1.63 ± 0.18	1.39 ± 0.29	1.09 ± 0.058	1.2 ± 0.087	1.02 ± 0.13	0.562 ± 0.21	0.691 ± 0.15	0.816 ± 0.045	0.668 ± 0.13	0.836 ± 0.079	1.04 ± 0.51	0.891 ± 0.25	1.13 ± 0.12	1.01 ± 0.19	0.904 ± 0.22	

From the supplement of paper PMC7238544
